{"source": "patent US20260183295A1", "about": "“METHODS AND COMPOSITIONS FOR TREATING CANCER” (Onconova Therapeutics, Inc., priority 2022, published 2026)", "tested_on": "MDA-MB-231 cells", "test": "Phosphoproteomic analysis, number of deregulated phosphopeptides", "type": "cell-based", "conditions": "5 μM, 2 hours", "key": {"[1]": {"conditions": "specific to the treatment (FIG. 6 Venn diagram)"}}}
{"compound": "CN1CCN(c2ccc(Nc3ncc4cc(C#N)c(=O)n(C5CCCC5)c4n3)cc2)CC1", "note": "[Compound 1, 8-cyclopentyl-2-((4-(4-methylpiperazin-1-yl)phenyl)amino)-7-oxo-7,8-dihydropyrido[2,3-d]pyrimidine-6-carbonitrile]", "values": [{"measurement": "phosphopeptides downregulated when treated with Compound 1 or Comparator 1", "setting": "shared by both treatments", "value": 80}, {"measurement": "phosphopeptides upregulated when treated with Compound 1 or Comparator 1", "setting": "shared by both treatments", "value": 1}, {"measurement": "phosphopeptides downregulated", "setting": "[1]", "value": 350}, {"measurement": "phosphopeptides upregulated", "setting": "[1]", "value": 155}]}
